These are yes or no findings as the source states them, for the method shown. Binding seen in cells or lysates may run through a third protein. Some results given as binding are weak or reduced against the parent protein; the word gives no strength.
Target: myosin-Va (human (endogenous in RPE1)) (UniProt Q9Y4I1)
Experiment: co-IP; RPE1 cells lysed in RIPA buffer (50 mM Tris-HCl pH 8.0, 150 mM NaCl, 1% NP-40, 0.5% sodium deoxycholate); lysates immunoprecipitated with EXOC6A or Myo-Va antibodies for 2 hr at 4°C, Protein G Sepharose overnight at 4°C, three washes with RIPA buffer, immunoblotting

Amino acid sequences for entries named in this document (tags omitted).
UniProt Q9Y4I1: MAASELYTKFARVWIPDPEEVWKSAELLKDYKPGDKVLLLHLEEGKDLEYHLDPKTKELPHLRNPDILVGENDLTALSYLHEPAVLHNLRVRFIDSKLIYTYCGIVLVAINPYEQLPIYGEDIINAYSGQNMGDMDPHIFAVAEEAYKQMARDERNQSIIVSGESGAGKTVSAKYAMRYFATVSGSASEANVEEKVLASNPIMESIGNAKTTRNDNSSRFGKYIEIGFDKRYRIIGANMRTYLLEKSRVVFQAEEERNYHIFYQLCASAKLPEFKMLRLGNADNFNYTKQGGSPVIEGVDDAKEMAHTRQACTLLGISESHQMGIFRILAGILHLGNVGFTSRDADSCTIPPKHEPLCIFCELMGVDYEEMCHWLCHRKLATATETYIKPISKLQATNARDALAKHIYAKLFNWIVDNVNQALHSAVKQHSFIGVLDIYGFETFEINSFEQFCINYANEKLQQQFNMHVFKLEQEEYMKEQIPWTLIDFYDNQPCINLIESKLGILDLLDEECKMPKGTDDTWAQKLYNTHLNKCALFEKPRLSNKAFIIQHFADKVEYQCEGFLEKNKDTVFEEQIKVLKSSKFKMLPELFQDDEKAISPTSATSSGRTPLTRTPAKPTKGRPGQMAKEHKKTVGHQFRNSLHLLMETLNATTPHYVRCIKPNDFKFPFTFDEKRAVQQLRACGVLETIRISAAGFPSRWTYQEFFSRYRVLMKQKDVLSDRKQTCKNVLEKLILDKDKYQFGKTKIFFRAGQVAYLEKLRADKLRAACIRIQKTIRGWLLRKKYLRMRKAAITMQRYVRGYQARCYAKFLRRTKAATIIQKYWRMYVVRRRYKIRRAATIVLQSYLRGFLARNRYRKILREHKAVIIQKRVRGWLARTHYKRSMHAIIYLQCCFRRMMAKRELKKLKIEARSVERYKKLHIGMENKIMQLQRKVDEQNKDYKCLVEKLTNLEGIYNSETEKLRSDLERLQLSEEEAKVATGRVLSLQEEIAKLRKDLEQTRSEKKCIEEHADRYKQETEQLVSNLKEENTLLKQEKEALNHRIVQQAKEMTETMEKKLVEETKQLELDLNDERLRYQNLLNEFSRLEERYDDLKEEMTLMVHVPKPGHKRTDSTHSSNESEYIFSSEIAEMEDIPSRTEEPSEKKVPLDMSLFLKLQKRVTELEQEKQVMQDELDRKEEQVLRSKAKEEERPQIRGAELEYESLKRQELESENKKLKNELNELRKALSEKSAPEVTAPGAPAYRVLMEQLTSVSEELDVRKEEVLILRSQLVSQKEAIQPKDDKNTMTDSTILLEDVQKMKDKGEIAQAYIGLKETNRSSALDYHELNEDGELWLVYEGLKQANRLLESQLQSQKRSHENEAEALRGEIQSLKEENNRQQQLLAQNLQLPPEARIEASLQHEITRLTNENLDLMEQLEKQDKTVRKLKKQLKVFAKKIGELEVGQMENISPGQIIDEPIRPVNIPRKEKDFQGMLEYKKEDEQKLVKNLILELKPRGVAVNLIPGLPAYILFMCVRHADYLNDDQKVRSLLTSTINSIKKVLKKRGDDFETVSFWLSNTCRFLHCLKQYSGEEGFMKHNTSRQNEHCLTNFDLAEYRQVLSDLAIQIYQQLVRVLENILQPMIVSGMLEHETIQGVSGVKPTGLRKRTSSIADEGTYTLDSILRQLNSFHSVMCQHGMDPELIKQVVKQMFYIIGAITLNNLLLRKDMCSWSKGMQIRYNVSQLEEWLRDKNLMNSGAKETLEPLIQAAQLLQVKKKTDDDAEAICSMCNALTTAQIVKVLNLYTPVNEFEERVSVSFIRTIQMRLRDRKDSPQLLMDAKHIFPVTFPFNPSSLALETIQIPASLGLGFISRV
UniProt Q8TAG9: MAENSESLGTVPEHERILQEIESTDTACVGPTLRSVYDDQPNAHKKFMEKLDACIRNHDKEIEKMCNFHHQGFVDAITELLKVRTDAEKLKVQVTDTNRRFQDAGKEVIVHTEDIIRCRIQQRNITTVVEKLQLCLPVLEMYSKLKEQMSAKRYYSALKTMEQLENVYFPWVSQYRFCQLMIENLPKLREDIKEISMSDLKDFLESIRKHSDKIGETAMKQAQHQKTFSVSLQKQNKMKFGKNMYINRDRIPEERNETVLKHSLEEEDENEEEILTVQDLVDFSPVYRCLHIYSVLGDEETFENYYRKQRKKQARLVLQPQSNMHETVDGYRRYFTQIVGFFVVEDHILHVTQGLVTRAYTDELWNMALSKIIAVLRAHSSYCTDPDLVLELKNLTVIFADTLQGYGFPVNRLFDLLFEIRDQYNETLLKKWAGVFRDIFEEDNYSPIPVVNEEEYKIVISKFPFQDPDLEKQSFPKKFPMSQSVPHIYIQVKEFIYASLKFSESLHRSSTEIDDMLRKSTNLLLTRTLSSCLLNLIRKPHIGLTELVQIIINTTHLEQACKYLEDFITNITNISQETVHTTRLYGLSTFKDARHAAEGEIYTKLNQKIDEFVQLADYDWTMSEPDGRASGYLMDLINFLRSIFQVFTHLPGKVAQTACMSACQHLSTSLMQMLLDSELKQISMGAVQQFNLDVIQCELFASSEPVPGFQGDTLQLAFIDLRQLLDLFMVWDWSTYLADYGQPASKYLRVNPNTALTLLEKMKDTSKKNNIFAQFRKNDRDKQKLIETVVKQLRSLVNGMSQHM

- binding: binds
Substance: EXOC6A (from UniProt Q8TAG9 1-804)

Source: PMC13189621
